# Library screen at single concentrations

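Phenotypic screen: M. tuberculosis growth, glucose 7H9 medium, 3 days; the read-out is not stated. Compounds at 50 µM. The record gives no direction; compounds that gave an IC50 in retests scored well above the rest, so higher reads as more growth inhibition. Size under these conditions: about 69,000 compounds, about 760 of them at 50% or above in at least one test.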

The filed quantity is “Percent Effect” (%).
How 0% and 100% were set is not recorded. Most values in the screen are low, and negative values occur.
This is an unselected part of the compounds tested.
Two or more numbers in one place are separate tests of the same structure; such repeats can differ widely.

compound	percent effect
COc1cccc(C(=O)N2CCC3(CCC(=O)N(C(C)C)C3)CC2)c1C	3.643
OCc1ccc(CN2CCC(n3cc(-c4ccc(F)cc4)nn3)CC2)o1	15.07
Cc1n[nH]c2c1C(c1cc(F)cc(F)c1)SCC(=O)N2 (stereo not shown)	0.2159
Cc1cccc(CN2CC3(CCNCC3)OCC2=O)n1	7.698
O=C(c1cnns1)N1CCN(Cc2ccc(F)cc2Cl)CC1	2.862
CCOc1cccc(C2CC(=O)NCc3nc(N4CCCC4)sc32)c1 (stereo not shown)	-31.23
Cc1cnn(CCNCc2ccc(OCC(N)=O)cc2)c1	-2.66
O=C(O)c1cccc(N2CCC(Oc3cccc(F)c3)CC2)n1	-21.05
CCCc1n[nH]c(C2CN(Cc3ncc[nH]3)CCO2)n1 (stereo not shown)	-13.1
COCCN1CCN(CC(=O)NC2(C#N)CCCC2)CC1C (stereo not shown)	-23.1 & -4.276
CCCc1cc(NCc2noc(COC)n2)n2nccc2n1	3.712
Cc1nccc(-c2ccccc2)c1C(=O)N1CCC2(CCCO2)CC1	-0.06312
CC(NC(=O)c1cc2n(n1)CCCN(C(C)C)C2)c1cn2ccsc2n1 (stereo not shown)	11.68
CC1CN(C)CCN1CC(=O)NCCOc1cccc(F)c1 (stereo not shown)	-3.849
CC(C)n1ccnc1CN1CCOC(CCc2ccccc2)C1 (stereo not shown)	2.314 & 1.726
CC(C)Cc1nc(C[S+]([O-])CC(=O)NCc2ccccc2)no1 (stereo not shown)	-16.14
O=C(O)C(F)(F)F.[H][C@]12CCN(C(=O)CC(C)(C)C)CC[C@@]1([H])S(=O)(=O)CCN2C	-16.82
CC(C)Nc1cccc(C(=O)NCC(O)c2ccc(F)cc2F)c1 (stereo not shown)	2.321
CCc1noc(C(C)N(C)CC(=O)Nc2ccc(C)cc2)n1 (stereo not shown)	2.985 & 11.66
Cc1cnn(CC2CCCN2C(=O)c2ccccc2-n2cnnn2)c1 (stereo not shown)	-1.078 & 5.991
Cc1nn(C)c(C)c1CC(=O)NCc1cccnc1OC1CCCC1	-15.22 & -6.906
[H][C@]12CC[C@]([H])(CN(Cc3cscn3)C1)N(Cc1c(C)noc1C)C2=O	-12.58
COc1ccc2cc(NC(=O)CCNc3nc(C)cc(C)n3)cnc2c1	17.11
CN1C(=O)C2(CC(=O)Nc3c2cnn3C(C)(C)C)c2ccccc21 (stereo not shown)	7.796
Fc1ccccc1CN1CCCN(c2ccc3cc[nH]c3n2)CC1	4.096
O=C(N[C@H]1CN(c2ccncc2)C[C@@H]1C1CC1)C1CCOCC1	10.14
Cc1nc(C2CCCN(C(=O)c3scnc3C)C2)no1 (stereo not shown)	-7.578 & 1.475
Cc1cc(NC(=O)CNCc2csc(-c3cnccn3)n2)ccc1Cl	35.91
CC(C)(NCC(=O)N1CCCC(C(N)=O)C1)c1ccc(Cl)cc1 (stereo not shown)	-8.76
CCN(CC)c1nc2ccsc2c(=O)n1CCC(=O)NCc1ccco1	23.28
COc1nc(C)cc(C)c1CNC(=O)N(C)Cc1cnn(C)c1	-7.572
O=C(CSCc1ccccn1)N(Cc1ccsc1)C1CC1	-6.216
c1ccc(OCC2CC3(CCN(CC4CCOCC4)CC3)CO2)nc1 (stereo not shown)	-52.33
Cc1nccn1CCC1CCN(C(C)C)CC1	-16.86
CCCN1CCC2(CC1)COc1ccccc1S(=O)(=O)N(CC1CC1)C2.O=C(O)C(F)(F)F	5.086
C[C@H](NC(=O)c1cnc(-c2ccccc2)nc1O)C(N)=O	19.82
COc1c(C2CCCN2C(=O)c2nccnc2N)c(C)nn1C (stereo not shown)	17.14
CS(=O)(=O)NCCC(=O)Nc1cnn(-c2ccccc2Cl)c1	-4.172 & -57.35
Cc1n[nH]c(C)c1-c1nccnc1CC1CCN(S(C)(=O)=O)C1 (stereo not shown)	15.36
CC(C)N(C)C(=O)COc1ccc(-c2noc(C3CCCO3)n2)cc1 (stereo not shown)	9.637
Cc1cnn(CC(C)NCc2cc(=O)n3cc(C)ccc3n2)c1 (stereo not shown)	4.429 & -17.08
COc1ccccc1-c1nnc([C@H]2CCN(C(C)=O)C2)o1	4.209 & -2.057
O=C(COCC(F)(F)F)N1CCCC(n2cccn2)C1 (stereo not shown)	2.73
[H][C@@]12CN(C(=O)c3ccncc3)C[C@]1([H])OCCN2Cc1csc(C)n1	42.38 & -9.75
CC(C)c1n[nH]c(C2CN(C(=O)c3cccc4cn[nH]c34)CCO2)n1 (stereo not shown)	-11.52
Cc1ccc(OCCC(=O)N2CCCC(n3nc(C)nc3C)C2)cc1 (stereo not shown)	23.41
Cc1cc2cc(C(=O)N[C@@H]3CC[C@@H](N4CCOCC4)[C@@H]3O)ccc2o1	-6.975
OC1CCCN(Cc2ccc(F)c3cccnc23)C1 (stereo not shown)	0.1472 & -11.54
Cc1cc(C)n(-c2ccc(CNCc3ccc(OC(C)C)cc3)cn2)n1	18.54
CN(C)S(=O)(=O)N1CC[C@]2(C[C@@H](OCC3CC3)CO2)C1	-10.57
Cc1nc2c(c(NCCNC(=O)C(C)C)n1)Cc1ccccc1OC2	0.3835
c1cncc(-c2noc(CNC3CCc4ncnn4C3)n2)c1 (stereo not shown)	-6.458
CS(=O)(=O)N1CCc2[nH]cnc2C12CCN(C(=O)c1ccccc1)CC2	-23.46
CN(C(=O)Cc1ccc(F)cc1)C1CCN(c2ccccn2)CC1	19.19
COCCn1cnnc1CCNc1cc(C)nc2ccnn12	-2.601
COCC(=O)N1CCC(Oc2cccc(C)c2)CC1	27.96
O=C(NC1CCN(CC2CC2)C1)N1CCC(OC2CCCCC2)CC1 (stereo not shown)	13.3 & 0.01149
Cc1ccc(-c2nc(CCNC(=O)NCC(C)(C)C(N)=O)co2)cc1	6.539
CCCNC(=O)C1CCN(CC(O)c2ccccc2)CC1 (stereo not shown)	0.949
CCc1cc(=O)n(CC(=O)N2CCCC2)c(-c2ccc(F)cc2)n1	7.491
Cn1ncc2c(N3CCC(F)(F)CC3)nc(-c3ccncc3)nc21	-18.41
Cc1noc(C2CCC3(CCN(C(=O)c4cc(C5CC5)on4)CC3)O2)n1 (stereo not shown)	1.111
O=C(NCCN1CCOCC1)c1cc(-c2ccc3c(c2)CCO3)n[nH]1	24.67
Cc1cc(CS(=O)(=O)C(C)c2ccc(F)cc2)on1 (stereo not shown)	-21.65 & -2.08
CCc1csc(C2CCCN(C(=O)c3ccnc(N(C)C)c3)C2)n1 (stereo not shown)	-12.62 & 7.066
CC(C)n1nc2c(cc1=O)CN(Cc1ccc(-n3cccn3)cc1)CC2	2.26
COc1ccc2c(c1)OCC(CNC(=O)c1cc(C(C)C)on1)C2 (stereo not shown)	15.95
CC(=O)N1CC2C[C@]2(NC(=O)c2ccco2)C1 (stereo partly shown)	-38.01
c1n[nH]cc1CCCN1CCC(OC2CCCCC2)CC1	-8.292
Cc1ccc(C(=O)N2CCSCC2)cc1NC(C)C	0.2654
Clc1ccc(CN(CCN2CCOCC2)Cc2cccnc2)c(Cl)c1	-16.51

The first 4 entries again:

compound	percent effect
COc1cccc(C(=O)N2CCC3(CCC(=O)N(C(C)C)C3)CC2)c1C	3.643
OCc1ccc(CN2CCC(n3cc(-c4ccc(F)cc4)nn3)CC2)o1	15.07
Cc1n[nH]c2c1C(c1cc(F)cc(F)c1)SCC(=O)N2 (stereo not shown)	0.2159
Cc1cccc(CN2CC3(CCNCC3)OCC2=O)n1	7.698

Source: ChEMBL document CHEMBL3988442, “University of Dundee, Small-Polar-MMV Screening Library” (2021).